Results taken from PMC12551717.
These are yes or no findings as the source states them, for the method shown. Binding seen in cells or lysates may run through a third protein. Some binding calls cover weakened binding; strength is not graded here. Sequences can lack the tags named with a protein.

Sequences of proteins named here, by UniProt entry; tags and fusion partners are left off.
UniProt P33176: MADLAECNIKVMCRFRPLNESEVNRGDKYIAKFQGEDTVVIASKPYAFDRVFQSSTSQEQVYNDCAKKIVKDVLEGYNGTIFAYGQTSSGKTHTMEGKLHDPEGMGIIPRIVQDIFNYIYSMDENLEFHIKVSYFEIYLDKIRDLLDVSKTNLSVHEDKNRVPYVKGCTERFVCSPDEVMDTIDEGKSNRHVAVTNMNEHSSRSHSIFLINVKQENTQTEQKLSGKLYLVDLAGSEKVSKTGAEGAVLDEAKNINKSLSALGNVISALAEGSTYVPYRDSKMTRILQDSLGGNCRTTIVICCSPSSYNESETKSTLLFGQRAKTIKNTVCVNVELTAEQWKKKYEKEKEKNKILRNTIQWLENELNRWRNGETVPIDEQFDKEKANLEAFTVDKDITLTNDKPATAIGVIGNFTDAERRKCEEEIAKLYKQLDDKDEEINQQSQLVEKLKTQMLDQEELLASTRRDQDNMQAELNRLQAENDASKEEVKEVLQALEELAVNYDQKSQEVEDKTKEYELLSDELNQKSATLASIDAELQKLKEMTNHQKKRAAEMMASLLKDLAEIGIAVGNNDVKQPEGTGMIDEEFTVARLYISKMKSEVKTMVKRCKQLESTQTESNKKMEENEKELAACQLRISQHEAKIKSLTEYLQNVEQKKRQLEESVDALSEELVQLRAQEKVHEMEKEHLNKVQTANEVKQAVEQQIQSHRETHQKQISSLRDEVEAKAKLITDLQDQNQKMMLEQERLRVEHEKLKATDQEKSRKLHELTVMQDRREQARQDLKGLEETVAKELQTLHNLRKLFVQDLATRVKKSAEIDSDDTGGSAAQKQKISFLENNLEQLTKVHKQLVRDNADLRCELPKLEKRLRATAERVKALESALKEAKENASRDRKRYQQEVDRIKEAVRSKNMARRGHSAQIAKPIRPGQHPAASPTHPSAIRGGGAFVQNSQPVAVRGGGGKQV

Molecular target: T1, PLEKHM2-frameshift (FS) proteoform, HA-tagged (HA-PLEKHM2-FS) (human)
T1 sequence: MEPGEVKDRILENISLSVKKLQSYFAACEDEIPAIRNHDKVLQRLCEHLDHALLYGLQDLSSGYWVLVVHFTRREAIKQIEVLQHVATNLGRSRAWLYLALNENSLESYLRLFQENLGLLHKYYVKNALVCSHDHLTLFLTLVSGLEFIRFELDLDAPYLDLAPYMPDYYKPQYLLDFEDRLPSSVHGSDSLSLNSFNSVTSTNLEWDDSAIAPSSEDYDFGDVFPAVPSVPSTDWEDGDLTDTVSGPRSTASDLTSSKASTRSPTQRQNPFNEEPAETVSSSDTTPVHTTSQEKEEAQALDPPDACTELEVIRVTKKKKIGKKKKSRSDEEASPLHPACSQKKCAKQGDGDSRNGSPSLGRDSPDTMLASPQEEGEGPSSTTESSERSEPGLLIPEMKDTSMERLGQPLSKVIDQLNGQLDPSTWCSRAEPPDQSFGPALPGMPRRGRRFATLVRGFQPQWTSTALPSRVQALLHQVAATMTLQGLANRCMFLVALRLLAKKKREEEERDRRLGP
Experiment: co-IP; HEK293T transfected with HA-tagged PLEKHM2 constructs; lysis in 10 mM tris-HCl pH 7.5, 150 mM NaCl, 0.5 mM EDTA, 0.5% NP-40; immunoprecipitation with HA antibody beads, 4°C, 2 h; immunoblot for KIF5B

KIF5B (kinesin-1 heavy chain) (from UniProt P33176 1-963)
binding: binds
